We go through 32 targets from the supplement of paper PMC10849652.

Protein sequences, listed by entry. Tags and fused reporters are not part of them. Lines headed by an entry give the natural chain unless they say otherwise; changes in a name come on top.
UniProt Q9H015: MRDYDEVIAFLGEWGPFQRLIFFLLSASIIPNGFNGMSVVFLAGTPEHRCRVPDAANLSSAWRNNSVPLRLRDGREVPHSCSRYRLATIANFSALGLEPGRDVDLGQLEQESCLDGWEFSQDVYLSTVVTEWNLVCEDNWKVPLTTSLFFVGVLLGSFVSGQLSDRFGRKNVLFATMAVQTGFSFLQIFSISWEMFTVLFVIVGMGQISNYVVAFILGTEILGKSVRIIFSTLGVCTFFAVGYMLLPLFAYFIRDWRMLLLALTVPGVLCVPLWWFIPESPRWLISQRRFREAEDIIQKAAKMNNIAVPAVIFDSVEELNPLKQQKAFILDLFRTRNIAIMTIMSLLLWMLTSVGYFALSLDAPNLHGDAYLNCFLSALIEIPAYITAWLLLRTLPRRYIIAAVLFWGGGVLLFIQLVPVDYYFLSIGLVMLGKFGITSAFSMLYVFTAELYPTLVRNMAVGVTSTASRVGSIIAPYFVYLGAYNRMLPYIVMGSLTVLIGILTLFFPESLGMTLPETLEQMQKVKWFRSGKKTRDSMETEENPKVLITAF
UniProt P14672: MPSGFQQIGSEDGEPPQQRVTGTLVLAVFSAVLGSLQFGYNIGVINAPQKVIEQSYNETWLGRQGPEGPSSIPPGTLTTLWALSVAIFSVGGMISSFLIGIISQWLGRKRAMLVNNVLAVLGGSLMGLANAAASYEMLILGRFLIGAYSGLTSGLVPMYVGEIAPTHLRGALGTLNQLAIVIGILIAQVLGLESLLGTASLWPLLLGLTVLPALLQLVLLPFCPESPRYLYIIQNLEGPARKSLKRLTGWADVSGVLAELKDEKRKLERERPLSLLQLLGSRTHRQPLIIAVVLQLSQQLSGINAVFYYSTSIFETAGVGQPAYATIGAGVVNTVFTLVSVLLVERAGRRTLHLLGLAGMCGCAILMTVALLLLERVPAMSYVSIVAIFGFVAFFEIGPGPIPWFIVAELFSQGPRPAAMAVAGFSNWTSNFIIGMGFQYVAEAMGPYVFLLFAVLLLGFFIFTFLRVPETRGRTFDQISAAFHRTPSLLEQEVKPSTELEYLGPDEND
UniProt Q6YBV0: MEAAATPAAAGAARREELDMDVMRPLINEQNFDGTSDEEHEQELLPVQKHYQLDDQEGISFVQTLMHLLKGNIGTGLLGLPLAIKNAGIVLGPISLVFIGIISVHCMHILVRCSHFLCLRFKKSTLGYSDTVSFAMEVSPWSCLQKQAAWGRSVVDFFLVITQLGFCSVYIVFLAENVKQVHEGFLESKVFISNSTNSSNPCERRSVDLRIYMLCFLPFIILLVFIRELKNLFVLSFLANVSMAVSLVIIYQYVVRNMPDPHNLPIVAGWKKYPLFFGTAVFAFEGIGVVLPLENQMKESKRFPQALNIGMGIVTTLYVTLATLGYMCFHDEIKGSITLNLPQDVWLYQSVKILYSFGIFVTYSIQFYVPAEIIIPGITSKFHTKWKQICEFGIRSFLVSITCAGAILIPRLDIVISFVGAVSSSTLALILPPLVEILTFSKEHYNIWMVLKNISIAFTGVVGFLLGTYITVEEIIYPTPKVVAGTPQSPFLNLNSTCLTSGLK
UniProt Q8IVJ1: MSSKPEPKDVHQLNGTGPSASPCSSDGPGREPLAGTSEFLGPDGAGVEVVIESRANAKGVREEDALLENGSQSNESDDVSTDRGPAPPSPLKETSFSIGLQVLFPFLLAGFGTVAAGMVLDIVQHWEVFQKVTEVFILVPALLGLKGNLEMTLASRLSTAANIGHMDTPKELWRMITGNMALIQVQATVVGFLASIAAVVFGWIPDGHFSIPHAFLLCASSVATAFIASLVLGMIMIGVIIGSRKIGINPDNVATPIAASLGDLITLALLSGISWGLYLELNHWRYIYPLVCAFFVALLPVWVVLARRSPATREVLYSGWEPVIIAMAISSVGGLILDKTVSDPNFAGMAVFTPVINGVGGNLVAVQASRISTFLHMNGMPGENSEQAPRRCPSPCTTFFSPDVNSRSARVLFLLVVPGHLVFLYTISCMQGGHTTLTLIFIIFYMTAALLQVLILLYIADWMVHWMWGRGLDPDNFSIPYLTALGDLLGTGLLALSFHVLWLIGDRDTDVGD
UniProt Q0GE19: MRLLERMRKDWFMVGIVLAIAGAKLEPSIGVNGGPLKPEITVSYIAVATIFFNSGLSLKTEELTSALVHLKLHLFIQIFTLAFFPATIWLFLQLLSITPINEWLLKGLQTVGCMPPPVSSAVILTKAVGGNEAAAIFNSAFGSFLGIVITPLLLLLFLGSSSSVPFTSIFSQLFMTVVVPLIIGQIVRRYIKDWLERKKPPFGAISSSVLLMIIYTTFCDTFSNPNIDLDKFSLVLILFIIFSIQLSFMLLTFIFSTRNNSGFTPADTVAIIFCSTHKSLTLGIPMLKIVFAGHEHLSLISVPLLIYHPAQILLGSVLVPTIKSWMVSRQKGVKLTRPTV
UniProt Q96QE2: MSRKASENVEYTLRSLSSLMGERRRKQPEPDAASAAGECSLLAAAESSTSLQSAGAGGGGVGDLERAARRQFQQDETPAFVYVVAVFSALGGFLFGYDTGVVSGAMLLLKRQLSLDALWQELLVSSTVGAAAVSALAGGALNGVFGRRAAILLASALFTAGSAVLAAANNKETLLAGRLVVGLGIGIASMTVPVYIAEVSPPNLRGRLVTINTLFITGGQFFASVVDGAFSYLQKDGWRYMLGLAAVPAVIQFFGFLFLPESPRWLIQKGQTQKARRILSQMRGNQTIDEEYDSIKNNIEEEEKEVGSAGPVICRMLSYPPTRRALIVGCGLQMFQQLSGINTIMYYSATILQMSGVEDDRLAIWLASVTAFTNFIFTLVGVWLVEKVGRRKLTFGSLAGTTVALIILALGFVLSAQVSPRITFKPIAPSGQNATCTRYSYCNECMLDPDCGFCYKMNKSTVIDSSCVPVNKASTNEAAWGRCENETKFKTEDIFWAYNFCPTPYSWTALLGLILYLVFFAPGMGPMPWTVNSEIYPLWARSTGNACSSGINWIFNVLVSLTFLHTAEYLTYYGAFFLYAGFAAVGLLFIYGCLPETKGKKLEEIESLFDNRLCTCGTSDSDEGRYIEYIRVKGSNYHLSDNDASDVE
UniProt Q9UGH3: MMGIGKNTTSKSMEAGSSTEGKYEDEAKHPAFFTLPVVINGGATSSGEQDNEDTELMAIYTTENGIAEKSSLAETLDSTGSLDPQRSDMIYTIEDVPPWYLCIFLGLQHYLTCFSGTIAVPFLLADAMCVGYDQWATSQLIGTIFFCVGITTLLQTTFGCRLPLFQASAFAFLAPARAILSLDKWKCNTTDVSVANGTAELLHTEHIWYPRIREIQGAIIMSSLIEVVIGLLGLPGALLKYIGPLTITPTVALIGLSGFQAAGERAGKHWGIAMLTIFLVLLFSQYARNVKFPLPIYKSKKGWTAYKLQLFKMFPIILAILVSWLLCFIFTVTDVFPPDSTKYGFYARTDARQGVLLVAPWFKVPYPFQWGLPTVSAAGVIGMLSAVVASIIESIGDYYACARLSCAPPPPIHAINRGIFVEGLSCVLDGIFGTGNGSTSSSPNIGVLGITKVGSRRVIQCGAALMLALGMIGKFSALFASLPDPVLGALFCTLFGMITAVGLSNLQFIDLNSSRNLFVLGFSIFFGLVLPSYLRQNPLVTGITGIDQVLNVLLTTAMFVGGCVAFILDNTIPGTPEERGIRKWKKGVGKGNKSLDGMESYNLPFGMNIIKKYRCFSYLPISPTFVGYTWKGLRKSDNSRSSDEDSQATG
UniProt Q8N357: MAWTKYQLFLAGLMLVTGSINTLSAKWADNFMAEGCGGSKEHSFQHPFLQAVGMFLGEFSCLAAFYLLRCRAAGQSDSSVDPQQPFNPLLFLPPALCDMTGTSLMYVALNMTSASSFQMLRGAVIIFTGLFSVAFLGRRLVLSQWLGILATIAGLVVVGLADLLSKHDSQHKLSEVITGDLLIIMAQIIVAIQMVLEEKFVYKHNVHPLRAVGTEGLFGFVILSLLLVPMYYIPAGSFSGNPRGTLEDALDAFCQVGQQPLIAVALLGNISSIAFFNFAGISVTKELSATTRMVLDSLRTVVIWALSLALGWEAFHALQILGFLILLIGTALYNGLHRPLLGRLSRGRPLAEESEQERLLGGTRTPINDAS
UniProt Q7Z2H8: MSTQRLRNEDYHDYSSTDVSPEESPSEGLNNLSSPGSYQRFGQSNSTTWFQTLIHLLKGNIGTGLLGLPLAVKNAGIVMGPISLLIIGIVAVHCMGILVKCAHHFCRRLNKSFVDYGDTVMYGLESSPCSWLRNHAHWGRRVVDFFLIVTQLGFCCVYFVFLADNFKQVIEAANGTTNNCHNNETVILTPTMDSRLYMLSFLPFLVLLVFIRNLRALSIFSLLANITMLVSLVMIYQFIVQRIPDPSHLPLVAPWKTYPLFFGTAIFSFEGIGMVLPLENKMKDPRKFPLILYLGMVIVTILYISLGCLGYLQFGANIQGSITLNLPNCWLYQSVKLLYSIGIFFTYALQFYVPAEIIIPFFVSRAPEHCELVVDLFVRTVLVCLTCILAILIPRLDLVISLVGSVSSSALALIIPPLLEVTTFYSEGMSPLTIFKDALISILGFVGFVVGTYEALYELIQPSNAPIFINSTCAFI
UniProt Q6ZP29: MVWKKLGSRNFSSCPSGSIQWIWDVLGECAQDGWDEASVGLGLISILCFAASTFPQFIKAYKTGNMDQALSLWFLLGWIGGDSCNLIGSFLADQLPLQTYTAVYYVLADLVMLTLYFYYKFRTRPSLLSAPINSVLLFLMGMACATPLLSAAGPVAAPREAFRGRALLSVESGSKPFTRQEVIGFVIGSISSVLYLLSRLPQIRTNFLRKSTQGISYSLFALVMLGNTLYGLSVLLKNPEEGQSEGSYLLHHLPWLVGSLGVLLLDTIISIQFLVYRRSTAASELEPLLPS
UniProt Q8N755: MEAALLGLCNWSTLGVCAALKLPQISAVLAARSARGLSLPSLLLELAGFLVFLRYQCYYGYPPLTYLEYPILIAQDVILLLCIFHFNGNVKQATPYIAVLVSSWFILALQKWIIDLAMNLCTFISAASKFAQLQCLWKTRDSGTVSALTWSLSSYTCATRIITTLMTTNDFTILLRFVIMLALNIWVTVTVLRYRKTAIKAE
UniProt Q9NY26: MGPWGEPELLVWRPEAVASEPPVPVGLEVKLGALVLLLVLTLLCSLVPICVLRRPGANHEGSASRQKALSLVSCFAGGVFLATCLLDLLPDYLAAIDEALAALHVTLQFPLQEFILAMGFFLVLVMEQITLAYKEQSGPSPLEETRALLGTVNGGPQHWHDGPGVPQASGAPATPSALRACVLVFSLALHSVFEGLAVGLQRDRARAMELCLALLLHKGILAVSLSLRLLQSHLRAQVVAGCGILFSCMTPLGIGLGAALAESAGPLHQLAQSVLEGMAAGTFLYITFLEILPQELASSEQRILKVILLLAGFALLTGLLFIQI
UniProt Q9NTN3, whole entry, looked up: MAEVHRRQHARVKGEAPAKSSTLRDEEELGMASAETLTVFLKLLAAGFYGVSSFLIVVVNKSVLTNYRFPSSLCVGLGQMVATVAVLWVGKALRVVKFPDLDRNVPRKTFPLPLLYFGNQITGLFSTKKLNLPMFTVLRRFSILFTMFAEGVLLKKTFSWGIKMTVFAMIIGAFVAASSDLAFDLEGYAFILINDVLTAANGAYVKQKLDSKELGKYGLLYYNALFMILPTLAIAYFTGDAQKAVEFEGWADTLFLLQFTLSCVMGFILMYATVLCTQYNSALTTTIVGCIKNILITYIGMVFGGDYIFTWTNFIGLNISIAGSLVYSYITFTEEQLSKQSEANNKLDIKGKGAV
UniProt Q96A46: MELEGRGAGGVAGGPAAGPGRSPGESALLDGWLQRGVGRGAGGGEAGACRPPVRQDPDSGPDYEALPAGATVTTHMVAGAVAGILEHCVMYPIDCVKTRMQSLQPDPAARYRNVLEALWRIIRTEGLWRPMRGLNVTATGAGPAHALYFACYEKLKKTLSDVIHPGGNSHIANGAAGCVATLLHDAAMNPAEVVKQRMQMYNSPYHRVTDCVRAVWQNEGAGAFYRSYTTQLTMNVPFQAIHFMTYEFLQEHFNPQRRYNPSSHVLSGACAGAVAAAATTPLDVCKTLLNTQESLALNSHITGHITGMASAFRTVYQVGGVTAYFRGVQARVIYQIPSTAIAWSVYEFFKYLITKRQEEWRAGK
UniProt Q5SVS4: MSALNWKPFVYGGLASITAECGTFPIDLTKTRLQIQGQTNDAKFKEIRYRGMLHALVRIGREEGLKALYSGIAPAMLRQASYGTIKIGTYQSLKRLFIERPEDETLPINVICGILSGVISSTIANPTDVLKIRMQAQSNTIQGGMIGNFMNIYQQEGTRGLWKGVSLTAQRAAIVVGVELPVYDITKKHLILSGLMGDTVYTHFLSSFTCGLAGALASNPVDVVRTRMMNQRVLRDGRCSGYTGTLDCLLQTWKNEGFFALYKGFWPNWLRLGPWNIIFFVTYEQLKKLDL

Holding throughout (assay): log2 fold change, soluble protein after heating vs DMSO (PISA); higher = thermal stabilisation; K562 cells, 10 uM, 30 min; active = over 0.2 and 3.5 SD of the protein, either way, in both replicates (recomputed)
Compound in assay [1]: CC(=O)c1cnc2ccc(-c3cc(Cl)c(O)c(Cl)c3)nc2c1N[C@H]1CC[C@H](CN(C)C)CC1
The procedure, abridged:
(§1)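 K562 cells (2×10^6 cells/mL) were treated with 10 μM compound for 30 min, and aliquots were heated for 3 min over 48°C-58°C. Pooled aliquots were extracted in PBS with 0.5% NP-40 at 4°C, and the supernatant after 21,000xg for 90 min was measured by TMTpro 16plex LC-MS/MS with channel sums equalised. Reported thermal stability, relative to control samples and from duplicates, is a log2 fold change.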

Compound in another assay: CC(C)(C)Cn1c(N)nc2ccc(-c3[nH]c(C(C)(C)C)nc3-c3ccc(F)cc3)nc21 [ralimetinib]
The procedure, abridged: as §1

Compound in assay [2]: CC(C)(O)CC(=O)NCCn1ccc2ncnc(Nc3ccc(Oc4cccc(C(F)(F)F)c4)c(Cl)c3)c21
The gist of the method: as §1

Compound in assay [3]: CC(C)C[C@@H](C=O)NC(=O)[C@H](CC(C)C)NC(=O)[C@H](CC(C)C)NC(=O)OCc1ccccc1
The procedure, abridged: as §1

Compound in assay [4]: CC1=C(C2=C(C=C1)C(=O)C3=CC=CC=C3N2CCCN)C
The procedure, abridged:
as §1

Compound in the next assay: C=CC(=O)N1CCC[C@@H](n2nc(-c3ccc(Oc4ccccc4)cc3)c3c(N)ncnc32)C1 [ibrutinib]
The gist of the method:
as §1

Compound in assay [5]: CC(C)C1=C2N=C(C=C(N2N=C1)NCC3=CC=CC=C3)NCCCCCCN
The procedure, abridged:
as §1

Compound in assay [6]: CC1=C(C(CC(=O)N1)C2=CC=C(C=C2)C(F)(F)F)C(=O)NC3=C(C=C4C(=C3)C=NN4)F
The procedure, abridged: as §1

Compound in a further assay: C1COCCN1CCN2C3=CC=CC=C3N=C2NC(=O)C4=CC(=CC=C4)[N+](=O)[O-] [IRAK-1-4 Inhibitor I]
The procedure, abridged:
as §1

Compound in another assay: CC(C)N(C[C@H]1O[C@@H](n2cnc3c(N)ncnc32)[C@H](O)[C@@H]1O)[C@H]1C[C@@H](CCc2nc3cc(C(C)(C)C)ccc3[nH]2)C1 [pinometostat]
The procedure, abridged: as §1

The other results are listed elsewhere or left out. Residues, ends and D or L forms follow the SMILES beside them. *: point of attachment. Cbz = O=C(OCc1ccccc1)*

On to SLC22A4 (UniProt Q9H015), for which the log2 fold change in [1] is inactive: -0.042; in the assay with ralimetinib, inactive: -0.096; in assay [2], inactive: 0.021; in assay [3], inactive: 0.133; in assay [4], inactive: -0.064.

Turning to SLC2A4 (UniProt P14672), the log2 fold change is inactive: 0.204 with ibrutinib; inactive: 0.077 in assay [1]; inactive: 0.097 with ralimetinib; inactive: -0.045 in assay [5]; inactive: 0.449 in assay [3]; inactive: -0.15 in assay [6]. For the same target, in [4], the log2 fold change was inactive: 0.09.

Consider SLC36A4 (UniProt Q6YBV0), for which the log2 fold change with ibrutinib was inactive: 0.01; with ralimetinib it was inactive: -0.427; in assay [2], inactive: 0.044; in [5] it was inactive: -0.166; in [3] it was inactive: 0.092.

Regarding SLC41A1 (UniProt Q8IVJ1), the log2 fold change with IRAK-1-4 Inhibitor I is inactive: -0.189; with ralimetinib, inactive: -0.116; in assay [2], inactive: -0.399; in assay [3], inactive: 0.031; in the assay with pinometostat, inactive: -0.031; in assay [6], inactive: -0.039.

For the target SLC17A5 (UniProt Q9NRA2), the log2 fold change with IRAK-1-4 Inhibitor I is inactive: -0.039; in [1], inactive: -0.042; with ralimetinib it was inactive: 0.07; in [5], inactive: -0.205; in assay [3], inactive: 0.086; with pinometostat, inactive: -0.057.

Consider SLC35E3 (UniProt Q7Z769), for which the log2 fold change in assay [1] was inactive: -0.032; in assay [2], inactive: -0.535; in assay [5], inactive: 0.065; in [6] it was inactive: -0.012; in assay [4] it was inactive: 0.

As to SLC10A7 isoform 1 (UniProt Q0GE19), the log2 fold change with ibrutinib is inactive: 0.055; in assay [1], inactive: -0.012; in the assay with ralimetinib, inactive: 0.035; in assay [5] it was inactive: 0.018; in assay [3], inactive: 0; in assay [6], inactive: 0.177. In assay [4], the log2 fold change was inactive: -0.003.

With SLC2A13 (UniProt Q96QE2), the log2 fold change with ibrutinib was inactive: -0.231; in assay [1] it was inactive: -0.088; with ralimetinib, inactive: 0.02; in [2], inactive: 0.059; in [5], inactive: 0.044; in assay [3], inactive: -0.057. Besides, the log2 fold change in assay [4] was inactive: -0.077.

Turning to SLC10A3 (UniProt P09131), the log2 fold change with ibrutinib is inactive: -0.212; in [2] it was inactive: -0.088; in [5], inactive: -0.302; in assay [6], inactive: 0.186; in assay [4], inactive: -0.051.

For the target SLC23A2 (UniProt Q9UGH3), the log2 fold change is inactive: 0.157 with IRAK-1-4 Inhibitor I; inactive: -0.336 with ibrutinib; inactive: 0.016 in assay [5]; inactive: 0.035 with pinometostat; inactive: -0.113 in assay [6]; inactive: 0.443 in [4].

SLC35F6 (UniProt Q8N357): the log2 fold change is inactive: -0.002 with ibrutinib; inactive: -0.016 in assay [1]; inactive: -0.18 with ralimetinib; inactive: 0.061 in assay [2]; inactive: -0.22 in assay [5]; inactive: 0.319 in assay [3]. Further, the log2 fold change in [4] was inactive: 0.078.

Regarding SLC36A1 (UniProt Q7Z2H8), the figures for the log2 fold change (with IRAK-1-4 Inhibitor I; in assay [5]; in the assay with pinometostat) were inactive: -0.005, inactive: -0.428 and inactive: -0.1, respectively.

Take SLC66A2 (UniProt Q8N2U9): the log2 fold change with ibrutinib was inactive: 0.02; in [2], inactive: -0.056; in assay [5], inactive: 0.055; in [6], inactive: -0.092.

As to SLC25A35 (UniProt Q3KQZ1), the log2 fold change was inactive: 0.028 with IRAK-1-4 Inhibitor I; inactive: -0.198 in assay [1]; inactive: 0.023 in assay [5]; inactive: -0.02 with pinometostat; inactive: 0.103 in [4].

On to SLC22A23 (UniProt A1A5C7), for which the log2 fold change in the assay with IRAK-1-4 Inhibitor I is inactive: -0.005; with ralimetinib, inactive: -0.027; in [5], inactive: 0.147; in [3] it was inactive: 0.064; with pinometostat, inactive: 0.032.

For the target SLC52A2 (UniProt Q9HAB3), the log2 fold change with ibrutinib is inactive: 0.052; in [5] it was inactive: -0.209; in assay [6], inactive: -0.016; in assay [4], inactive: 0.166.

Turning to SLC39A8 (UniProt Q9C0K1), the log2 fold change is inactive: 0.001 in the assay with ibrutinib; inactive: 0.004 in assay [1]; inactive: -0.045 in the assay with ralimetinib; inactive: -0.069 in assay [2]; inactive: -0.136 in assay [5]; inactive: 0.002 in [3]. For the same target, the log2 fold change is inactive: 0.104 in assay [6] and inactive: 0.037 in assay [4].

As for SLC66A1 (UniProt Q6ZP29), the log2 fold change was inactive: 0.227 with ibrutinib, inactive: -0.122 in [5] and inactive: -0.073 in [6].

Take SLC66A3 (UniProt Q8N755): the log2 fold change in assay [2] is inactive: 0.173; in [5], inactive: 0.08; in assay [6], inactive: 0.118.

In the case of SLC22A5 isoform 3 (UniProt O76082), the log2 fold change with IRAK-1-4 Inhibitor I was inactive: -0.033; with ibrutinib, inactive: -0.232; in assay [2], inactive: 0.003; with pinometostat it was inactive: -0.126; in assay [6], inactive: -0.024.

As for SLC36A1 (UniProt E5RG64), the log2 fold change in the assay with ibrutinib is inactive: 0.309.

Take SLC3A2 (UniProt F5H867): the log2 fold change with ibrutinib is inactive: -0.031; in assay [2] it was inactive: -0.007; in assay [5] it was inactive: 0.015; in assay [6], inactive: -0.026; in assay [4], inactive: 0.012.

As for SLC27A6 (UniProt Q9Y2P4), the log2 fold change with ibrutinib was inactive: 0.039; with ralimetinib, inactive: 0.082; in [2], inactive: -0.134; in [5], inactive: -0.307; in assay [3] it was inactive: 0.001; in assay [6], inactive: 0.001. The log2 fold change in [4] was inactive: -0.074.

On to SLC4A3 isoform 3 (UniProt P48751), for which the log2 fold change with ibrutinib is inactive: -0.13; in assay [1] it was inactive: -0.129; in [6], inactive: 0.085.

On to SLC39A1 (UniProt Q9NY26), for which the log2 fold change in [5] is active: -1.06.

With SLC25A29 (UniProt Q8N8R3), the log2 fold change with IRAK-1-4 Inhibitor I is inactive: 0.003; with ralimetinib it was inactive: 0.028; in [5], inactive: -0.165; in assay [3], inactive: 0.058; in the assay with pinometostat it was inactive: 0.029; in assay [4], inactive: -0.06.

As to SLC35D1 (UniProt Q9NTN3), the log2 fold change was inactive: 0.002 in assay [1] and inactive: 0.009 in [4].

Consider SLC39A9 (UniProt Q9NUM3), for which, in assay [4], the log2 fold change was inactive: 0.158.

In the case of SLC25A28 (UniProt Q96A46), the log2 fold change with ibrutinib was inactive: -0.051; in [6], inactive: -0.084.

In the case of SLC35G1 (UniProt Q2M3R5), the log2 fold change was inactive: -0.143 in [1] and inactive: -0.06 in [4].

Regarding SLC25A30 (UniProt Q5SVS4), the log2 fold change was inactive: 0.25 with IRAK-1-4 Inhibitor I; inactive: 0.008 in assay [1]; inactive: -0.106 with ralimetinib; inactive: -0.059 in assay [5]; inactive: 0.038 in assay [3]; inactive: -0.067 with pinometostat. The log2 fold change in [6] was inactive: 0.13.

Consider SLC26A2 (UniProt P50443), for which the log2 fold change was inactive: -0.072 with IRAK-1-4 Inhibitor I, inactive: -0.317 in [2], inactive: 0.139 in the assay with pinometostat and inactive: 0.142 in [6].
